A short description of this series: Total protein and SI protein contents in E. coli cells expressing SI genes.

In the case of “Erwinia rhapontici: sucrose isomerase cloned from Erwinia rhapontici WAC2928, SEQ ID NO: 2, mature polypeptide SEQ ID NO: 4”, where the note is “E. coli cells with SI gene, including background of approximately 2% proteins that migrated with the SI”, the Sucrose isomerase content came to 12.2 ± 1.5 % total proteins. Moreover, the Total protein content (E. coli cells with SI gene, means ± standard errors, 3 replications) came out at 15.97 ± 1.63 % dry weight. Where the note is “E. coli, same vector, promoter, start codon and termination sequences”, the “expression level of sucrose isomerase, of total protein” value was “around 10%”.
